At least one structure is not confirmed: it was looked up by name or label, or the drawing left a doubt.
Assay: Calcium carbonate scale inhibition
Details: 240 ppm Ca2+, 732 ppm HCO3-, pH 8.7 buffer, 50 °C, 22 hours
Experimental: To evaluate the efficiency of both scale inhibitors according to the present invention and comparative ones in preventing calcium carbonate scale in industrial water treatment conditions, the present test is carried out determining the amount of CaCO3 that has precipitated after 22 hours at 50 °C in a 50/50 mixture of cationic and anionic waters with the test phosphonates at three different concentrations. The amount of soluble Ca ions is analyzed by titration. […]
Put the sample bottles in an oven for 22 hours at 50 °C. […] The phosphonate efficiency as CaCO3 scale inhibition is then calculated using the equation: % CaCO3 inhibition = (Cat−Cab) × 100)÷(Cai−Cab) [formula] wherein Cat = calcium remaining in solution of the t sample, where the dilution with HCl has been corrected (Cat=(Caf)×Wta/Wtsam); Cab = Calcium remaining in the blank (i.e. glass bottle wherein no phosphonate was added; under these condition corresponds to minimum of 80% of calcium precipitated as CacO3); and Cai = Total calcium present in a reference t sample (i.e. a sample t in which the hardness brine has simply been diluted with water to get the same final volume).

With `O=P(O)(O)CN(CP(=O)(O)O)CP(=O)(O)O` [ATMP, aminotris(methylenephosphonic acid)] the “% CaCO3 inhibition” value (10 ppm active phosphonic acid) was 91% @ 10 ppm.

In the case of `CC(O)(P(=O)(O)O)P(=O)(O)O` [HEDP, 1-hydroxy ethylidene-1,1-diphosphonic acid], the “% CaCO3 inhibition” value (2 ppm active phosphonic acid) is reported as 96% @ 2 ppm.

— patent EP3860956B1, “PROCESS FOR MANUFACTURING N-ALKYL-DIPHOSPHONATE AMINO AMINOACIDS” (Italmatch Chemicals S.p.A., priority 2018, dated 2020)
